From PMC6411009
These are yes or no findings as the source states them, for the method shown. For part of these data: In cells and extracts the contact can be indirect. Some binding calls cover weakened binding; strength is not graded here.

Chains of the proteins cited; added tags and fusions are not shown. Lines headed by an entry give the natural chain unless they say otherwise; changes in a name come on top.
UniProt P12956: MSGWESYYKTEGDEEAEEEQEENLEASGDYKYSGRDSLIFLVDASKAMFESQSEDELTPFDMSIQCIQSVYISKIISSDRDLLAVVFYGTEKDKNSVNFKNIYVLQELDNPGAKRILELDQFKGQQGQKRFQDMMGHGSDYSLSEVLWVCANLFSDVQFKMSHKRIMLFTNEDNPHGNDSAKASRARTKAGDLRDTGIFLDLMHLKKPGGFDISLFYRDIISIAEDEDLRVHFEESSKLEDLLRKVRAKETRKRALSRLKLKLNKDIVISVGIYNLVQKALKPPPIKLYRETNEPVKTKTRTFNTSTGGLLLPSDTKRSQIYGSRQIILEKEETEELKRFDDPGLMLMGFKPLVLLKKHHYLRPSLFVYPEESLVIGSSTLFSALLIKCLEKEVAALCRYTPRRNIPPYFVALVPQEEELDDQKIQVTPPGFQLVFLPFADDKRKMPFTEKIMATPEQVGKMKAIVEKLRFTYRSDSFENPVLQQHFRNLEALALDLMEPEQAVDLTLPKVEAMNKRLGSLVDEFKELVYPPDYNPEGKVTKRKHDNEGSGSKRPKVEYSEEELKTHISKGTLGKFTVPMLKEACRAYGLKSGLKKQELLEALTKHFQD
UniProt P09874: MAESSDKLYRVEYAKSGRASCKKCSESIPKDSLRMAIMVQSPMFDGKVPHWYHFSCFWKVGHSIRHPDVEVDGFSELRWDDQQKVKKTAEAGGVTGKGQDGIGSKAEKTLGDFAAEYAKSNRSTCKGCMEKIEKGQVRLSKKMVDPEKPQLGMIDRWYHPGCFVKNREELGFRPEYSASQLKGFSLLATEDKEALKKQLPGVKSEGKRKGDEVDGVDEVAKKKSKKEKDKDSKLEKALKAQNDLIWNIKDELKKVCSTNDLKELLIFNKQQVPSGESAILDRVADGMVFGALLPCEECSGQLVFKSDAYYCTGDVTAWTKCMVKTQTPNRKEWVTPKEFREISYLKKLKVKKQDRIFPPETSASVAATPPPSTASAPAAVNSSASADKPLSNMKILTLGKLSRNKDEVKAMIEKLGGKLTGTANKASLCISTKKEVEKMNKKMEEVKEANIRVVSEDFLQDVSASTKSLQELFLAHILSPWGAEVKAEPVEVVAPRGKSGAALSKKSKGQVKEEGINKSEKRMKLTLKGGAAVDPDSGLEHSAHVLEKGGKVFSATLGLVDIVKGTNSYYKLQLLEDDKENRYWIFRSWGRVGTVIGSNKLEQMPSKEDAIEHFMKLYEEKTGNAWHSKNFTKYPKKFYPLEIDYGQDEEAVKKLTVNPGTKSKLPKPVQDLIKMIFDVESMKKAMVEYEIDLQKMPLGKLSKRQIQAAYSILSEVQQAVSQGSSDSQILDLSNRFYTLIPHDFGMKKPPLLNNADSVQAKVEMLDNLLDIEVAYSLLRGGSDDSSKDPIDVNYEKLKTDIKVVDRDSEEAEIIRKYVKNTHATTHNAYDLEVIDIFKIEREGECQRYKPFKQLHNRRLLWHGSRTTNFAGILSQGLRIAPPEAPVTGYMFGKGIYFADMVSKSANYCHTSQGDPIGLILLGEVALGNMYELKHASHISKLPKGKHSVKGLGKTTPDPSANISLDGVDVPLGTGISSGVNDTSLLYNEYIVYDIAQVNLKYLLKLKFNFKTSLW

How the values were obtained:
GST-BRN2 wild type = GST-BRN2 wild type (UniProt P31360); assay: pull-down; GST pull-down: 500 ng of GST-BRN2 (wild type or ΔN) coupled to glutathione beads, His-Ku70/Ku80 or 750 ng of PARP1 added for 20 min at room temperature in GSTB buffer (20 mM KPO4 pH 7.4, 0.5 mM EDTA, 10% glycerol, 0.5% NP40, 1 mM DTT, 150 mM KCl, 1 mg/mL BSA); four washes; Western blot for HIS-tagged Ku70 or PARP1; both purified
[1] = biological target: Flag epitope-tagged BRN2 wild type (UniProt P31360); assay: co-IP; anti-Flag M2 magnetic beads, 2 h at 4°C, lysis buffer (50 mM Hepes-NaOH pH 8.0, 100 mM KCl, 2 mM EDTA, 0.1% NP40, 10% glycerol), benzonase-treated lysate, five washes, Western blot

Substance: His-Ku70/Ku80 complex (from UniProt P12956 1-609; P13010 1-732)
- binding (GST-BRN2 wild type): binds

Substance: Ku80 (XRCC5), endogenous (from UniProt P13010 1-732)
- binding [1]: binds

Substance: PARP1 (purified recombinant) (from UniProt P09874 1-1014) (enzyme)
- binding (GST-BRN2 wild type): binds
